Data set [1] can be described thus: general procedure: Fmoc solid-phase peptide synthesis; H-Phe-2-ClTrt resin (Novabiochem, 0.73 mmol/g). Particulars: late stage modification step.
A short description of data set [2]: general procedure: Fmoc solid-phase peptide synthesis; H-Phe-2-ClTrt resin. Particulars: whole synthesis, scale 0.75 mmol.

On to “Fatty Acid-Linker#1Q-R-P-R-L-C*-H-K-G-P-(Nle)-C*-F (C6-C12 Disulfide Bridge)”, for which the step yield in data set [1] amounted to 54% yield.
In data set [2], “H2N-Q(Trt)-R(Pbf)-P-R(Pbf)-L-C(Trt)-H(Trt)-K(Boc)-G-P-(Nle)-C(Trt)-F-COOH” gave a crude mass of 2.09 g and a crude yield of 68%.

These data come from US9931372B2 (Novartis AG, priority 2015, dated 2018).
